Experimental data published in PMC12362111, “Cu/Zn-superoxide dismutase naturally fused with a β-propeller lactonase in Deinococcus radiodurans” (The Journal of Biological Chemistry, 2025).
These are yes or no findings as the source states them, for the method shown.

Assays:
[1] = molecular target: Cu/Zn-superoxide dismutase from Deinococcus radiodurans (DrSOD), without the signal peptide (Deinococcus radiodurans) (UniProt Q9RYV4); assay: SEC-MALS; 25 μM protein loaded on a gel filtration column (LW-803, SHODEX); MN buffer (50 mM MOPS, 100 mM NaCl, pH 7.0) for the holo forms, MN buffer with 5 mM EDTA for the metal-free apo state; monomer against dimer; both purified
[2] = molecular target: Cu/Zn-SOD domain of DrSOD (DrSOD^SOD) (Deinococcus radiodurans) (UniProt Q9RYV4); assay: as above

binding [1]	binding [2]	Binder
no binding (tested: 25 μM)		Cu/Zn-superoxide dismutase from Deinococcus radiodurans (DrSOD), without the signal peptide (enzyme, UniProt Q9RYV4 24-462) ATPLSATAALRDGAGQVVGSARFVQQGAGVQVTVDVRGLTPGMHGMHVHEFGRCTPGVDPAVNKVVPFGAAGGHFDPSMSRNHDTPQTDNKHGHGGDTPMLSVGADGVGKASFTSTKISLTGENGILNRSLVIHANPDDYKTDPAGMSGARERCGVIVRDGLSVRDYALPGPVDHPEGVAYDAKKGLIYTGSAQNGTIYAINAQSGAVTKFQEGGAYGRQVALGLKVDPQGRLWIAGGAQGTVSILTPDGMTLAVLETPKSPRPYINDLVLAPDGNFYVTDSSRPVIFRVDKALKLTAWLDLAGTPIKYGPGVNLNGIAATPDGKYLLAVQLNTGELWRIDLKTKAVKKVMDGLVNGDGLLLDGRTLYVARNKDQVVAKVSLSADYGSGQLVAQEPLNGLRFPATLAKVGNDLVVTQAQLDRIGGTPETPFKLTRFAKF
	no binding (tested: 25 μM)	Cu/Zn-SOD domain of DrSOD (DrSOD^SOD) (domain or fragment, UniProt Q9RYV4 24-184) ATPLSATAALRDGAGQVVGSARFVQQGAGVQVTVDVRGLTPGMHGMHVHEFGRCTPGVDPAVNKVVPFGAAGGHFDPSMSRNHDTPQTDNKHGHGGDTPMLSVGADGVGKASFTSTKISLTGENGILNRSLVIHANPDDYKTDPAGMSGARERCGVIVRDGW
